Each structure is given as a SMILES string. This is one part of the list.

The assay deals with T1, CTL2-GFP (C. trachomatis L2/434/Bu, GFP-expressing).
T1 construct: L2/434/Bu, GFP-expressing
Set-up: species or system HeLa; Intracellular C. trachomatis growth in HeLa cells, bulk GFP fluorescence relative to DMSO. Particulars: bulk GFP, single well; 28.5 h, 10 µM; inhibitor.
Regarding `CC(Oc1cccc(Cl)c1)C(=O)N/N=C/c1cccc(Oc2ccccc2)c1` (centres unmarked) [CBK262113], the “% of control remaining” value is reported as 100%.

Turning to `COc1cccc(C(=O)N2CCC(NC(=O)c3ccccc3C(F)(F)F)CC2)c1` [CBK155024], the “% of control remaining” value is 136.024%. With `Cc1[nH]c(=O)[nH]c(=O)c1CC(=O)N1Cc2cc(Cl)ccc2OC2(CCOCC2)C1` [CBK286341], the “% of control remaining” value is listed as 138.311%.

Consider `COc1c[nH]c(C(=O)NC(CCn2ccnc2)c2ccccc2)cc1=O` (centres unmarked) [CBK306743], for which the “% of control remaining” value amounted to 122.713%. For `FC(F)(F)c1ccc(Sc2cccc3ccccc23)nc1` [CBK089553] the value was 94.6651%; for `O=C(CCS(=O)(=O)c1ccccc1)Nc1cc2ccccc2c(N2CCNCC2)n1` [CBK028419T], 106.017%; for `CN(C)CCN1CCN(c2nc(-c3cccc4ccccc34)cnc2N)CC1` [CBK063479], 136.777%. As to `Cc1noc(C)c1C(=O)NC(Cc1ccsc1)c1cccnc1` (centres unmarked) [CBK285100], the “% of control remaining” value came to 135.414%. Take `CC(C)C(=O)N1N=C2CCCCC2C1(O)C(F)(F)F` (centres unmarked) [CBK028091]: the “% of control remaining” value is recorded as 143.577%.

Consider `CC(Cc1cccs1)NC(=O)C(C)n1ccnc1` (centres unmarked) [CBK282050], for which the “% of control remaining” value is 96.7993%.

`Cc1ccc(Cc2cnc(NC(=O)c3ccoc3C)s2)cc1C` [CBK298277]: the “% of control remaining” value turned out to be 123.688%.

Consider `COc1ccc(OC)c(NS(=O)(=O)c2ccccc2)c1` [CBK099989], for which the “% of control remaining” value was determined as 88.4478%. Then `CC(C)CN1CC2(CCN(C(=O)OCc3ccccc3)CC2)c2ccccc21` [CBK022626C], with 124.767%. Turning to `Cn1cc(C2CCCN2C(=O)c2cccc(C#N)c2)cn1` (centres unmarked) [CBK304849], the “% of control remaining” value is listed as 127.751%. For `CC(C)COC(=O)n1ccc(C(=O)N2CCCCC2)n1` [CBK058828] the value was 131.969%.

On to `O=C(C1=C(O)C(=O)N(CCN2CCOCC2)C1c1ccccn1)c1cc2ccccc2o1` (centres unmarked) [CBK269576], for which the “% of control remaining” value is on record as 117.407%. As to `O=S(=O)(c1ccccc1)N(CC(O)CN1CCCC1)c1cccc2ccccc12` (centres unmarked) [CBK264464C], the “% of control remaining” value is 100%. Then `Cn1nc(C(F)(F)F)c(C#N)c1Oc1ccc(C(C)(C)C)cc1` [CBK007398], with 136.286%. Then `Cc1cc(CNC(=O)CCn2ccc(C)n2)on1` [CBK281485], with 94.1853%; and `COc1ccccc1[C@@H]1C[C@H](OC(=O)c2ccc(F)cc2)C(=O)N1C` [CBK283598], with 155.176%. For `CC(C)c1nc2c(c(=O)c3ccccc3n2C)c(=O)n1-c1ccccc1` [CBK287947] the value was 150.891%. As for `O=C(NCc1ccc(F)cc1)N(Cc1cccc(Cl)c1)CC1CCNCC1` [CBK119479], the “% of control remaining” value is on record as 105.378%. Then `O=C(Nc1ccccc1)N[C@H]1CO[C@H]2[C@@H]1OC[C@H]2OCc1ccccc1` [CBK289488], with 95.4063%; and `COc1ccc(S(=O)(=O)N(C)CC(=O)Nc2ccc(S(N)(=O)=O)cc2)cc1C` [CBK267333], with 131.196%; and `COc1ccc(C)cc1CN(C)C(=O)c1cccc(NC(=O)C2CC2)c1` [CBK305414], with 135.522%.

For `COc1ccc(F)c(CN(CC2CCNCC2)C(=O)Nc2c(F)cccc2F)c1` [CBK049804], the “% of control remaining” value worked out at 85.755%. Then `Cc1n[nH]nc1C(=O)N(C)CC(C)Oc1ccc(Cl)c(Cl)c1` (centres unmarked) [CBK306173], with 103.174%.

As to `O=C1/C(=N\O)c2cc(Cl)ccc2N1Cc1ccccc1` [CBK288468], the “% of control remaining” value was found to be 114.929%. For `CN1CCN(C(=O)Nc2ccc(Cc3ccc(NC(=O)N4CCN(C)CC4)cc3)cc2)CC1` [CBK264852], the “% of control remaining” value is 116.236%.

Regarding `Cc1nc(C)n(CC2CCCN(Cc3cc(C#N)cs3)C2)n1` (centres unmarked) [CBK304787], the “% of control remaining” value was 99.7074%.

In the case of `Cc1csc(C(Cc2cccs2)NC(=O)C2CCOC2)n1` (centres unmarked) [CBK285123], the “% of control remaining” value turned out to be 100.288%.

As for `Oc1cc(-c2ccccc2)nc(NNc2ccccc2)n1` [CBK261716], the “% of control remaining” value turned out to be 95.8965%. With `CCCS(=O)(=O)c1ccc2[nH]c(NC(=O)c3cnc(-c4ccccc4)c(-c4ccncc4)c3)nc2c1` [CBK037426], the “% of control remaining” value is reported as 100.76%. With `O=C(Cn1cc(/C=C/c2[nH]c(=O)[nH]c(=O)c2[N+](=O)[O-])c2ccccc21)Nc1ccc2c(c1)OCO2` [CBK267036], the “% of control remaining” value is reported as 166.654%.

In the case of `O=C(NCC(O)c1ccc([N+](=O)[O-])cc1)c1cccc(S(=O)(=O)N2CCCC2)c1` (centres unmarked) [CBK268847], the “% of control remaining” value is reported as 103.235%. As to `COc1cccc(-c2cncc(C3CCN(C(=O)CCOc4ccccc4)CC3)n2)c1` [CBK286153], the “% of control remaining” value is 112.847%. Then `CCOc1cc2c(cc1CN1CCN(Cc3noc(C)n3)CC1)CCC2` [CBK307138], with 142.438%; and `COc1cccc(CNCC(c2ccnn2C)C(C)C)n1` (centres unmarked) [CBK304858], with 104.103%. `OCCN(CCO)CC1CC=CCC1` (centres unmarked) [CBK261907]: the “% of control remaining” value is given as 113.023%. Regarding `CCOC(=O)c1cnc(NS(=O)(=O)c2cccc(Cl)c2C)nc1C` [CBK004707], the “% of control remaining” value is 118.164%. Regarding `CCCc1[nH]nc(O)c1CCc1ccc(OC)cc1OC` [CBK081123], the “% of control remaining” value worked out at 98.2239%. Then `OCCNc1nccnc1-c1ccoc1` [CBK036580], with 102.753%; and `O=C1CNC(=O)C2(C/C=C/C[C@H]3COCC[C@H]3N1)CCN(Cc1ccc(F)cn1)CC2` [CBK292160], with 126.925%.

For `CCn1c2cc(C)oc2c2cn[nH]c(=O)c21` [CBK284230], the “% of control remaining” value came out at 169.074%. Regarding `CC(O)(CC(=O)O)CC(=O)OCCc1ccc2c(c1)CCC2` (centres unmarked) [CBK017766], the “% of control remaining” value was 146.413%. Consider `CCOc1ccc(-n2c(SC/C=C/c3ccccc3)nnc2-c2cccnc2)cc1` [CBK266222], for which the “% of control remaining” value was determined as 99.1056%. Turning to `Clc1ccc(COc2nccnc2OCc2cccnc2)cc1Cl` [CBK161597], the “% of control remaining” value is on record as 118.081%. `OCCn1ncc2c(SC3CCCCC3)ncnc21` [CBK269358]: the “% of control remaining” value amounted to 142.898%.

As to `CCOC(=O)C1CCCN(Cc2ccc(OC)cc2)C1` (centres unmarked) [CBK304413], the “% of control remaining” value stood at 125.631%. Consider `CS(=O)(=O)c1ccc(-n2cc(-c3cccnc3)nn2)cc1` [CBK113061], for which the “% of control remaining” value was found to be 119.432%.

On to `CCOc1ccccc1NC(=O)c1cc(CC(C)C)oc1C` [CBK057904], for which the “% of control remaining” value came to 85.2356%.

On to `COC(=O)COc1ccc(C(NC(=O)c2ccccc2)C(Cl)(Cl)Cl)cc1` (centres unmarked) [CBK265437], for which the “% of control remaining” value came to 103.744%.

For the molecule `Cc1cccn2c(=O)c(/C=C3\SC(=S)N(CCCC(=O)O)C3=O)c(N3CCC(C)CC3)nc12` [CBK264793], the “% of control remaining” value is on record as 100%. For `CC(C)(C)c1n[nH]c(C2CN(C(=O)CCCn3cccn3)CCO2)n1` (centres unmarked) [CBK305198] the value was 124.792%; for `COc1ccc(-c2nn(-c3ccccc3)cc2/C=C2\SC(N3CCC(C(N)=O)CC3)=NC2=O)cc1` [CBK265178], 103.69%; for `O=C(O)COCC(=O)N1CCC2(CC1)NC(=O)Cc1c2ccc2ccccc12` [CBK047168], 178.283%.

Turning to `Cc1cc(NC(=O)C(=O)NCCN2CCN(S(C)(=O)=O)CC2)ccc1Br` [CBK265401], the “% of control remaining” value is 131.132%. For the molecule `COc1ccc(-c2nc3ncccc3cc2O)cc1C` [CBK073700], the “% of control remaining” value worked out at 121.484%. For `COCCCn1c(=O)[nH]c2ncc(-c3cccc(NC(C)=O)c3)nc21` [CBK064433] the value was 117.22%; for `Cc1ccc(O)c(CN(CCCn2ccnc2)CC2CC=CCC2)c1` (centres unmarked) [CBK282829], 118.145%; for `Cc1ccc(C(=O)N2CCN(Cc3cc(=O)n4ccsc4n3)CC2)cc1` [CBK305057], 95.0395%. In the case of `O=C(c1ccco1)N1CCN(c2cncc(-c3ccc(F)cc3F)n2)CC1` [CBK065818], the “% of control remaining” value is listed as 163.412%. For `CCCc1ccc(S(=O)(=O)Nc2c(C(=O)OC)sc3ncccc23)cc1` [CBK050653] the value was 119.814%. Then `CCCc1nc(C(=O)N2Cc3cnn(Cc4ccc(F)cc4)c3C2)cs1` [CBK307249], with 138.907%. Regarding `CCNC(=O)Nc1cc2ccccc2c(-c2cccnc2)n1` [CBK073787], the “% of control remaining” value amounted to 127.319%. Then `Cc1cc(Cl)ccc1CNC(=O)/C=C/c1ccc(C(C)C)cc1` [CBK149615], with 121.788%. Regarding `Cn1ncnc1CCNS(=O)(=O)c1cccc(C(=O)N2CCCCC2)c1` [CBK306731], the “% of control remaining” value is 131.191%. In the case of `COc1ccc(S(=O)(=O)N(C)CC(=O)Nc2ccc(C(N)=O)cc2)cc1C` [CBK267278], the “% of control remaining” value amounted to 123.174%. For `CCOC(=O)NC(=S)NCCCn1ccnc1` [CBK018272] the value was 110.031%. With `O=C(c1ccccc1F)N1CCCC(c2cc3ncccc3cn2)C1` (centres unmarked) [CBK284710], the “% of control remaining” value is listed as 152.94%. Consider `O=c1[nH]c(=O)c2cc(S(=O)(=O)NCC3(N4CCOCC4)CCCCC3)ccc2[nH]1` [CBK286390], for which the “% of control remaining” value was found to be 117.749%. For `CC1CC1C(=O)NCCN1CCC(O)(c2ccc(F)cc2)CC1` (centres unmarked) [CBK283168] the value was 102.022%; for `CCC(NC(=O)Nc1cc(N2CCOCC2)ccc1Cl)c1cnn(C)c1` (centres unmarked) [CBK306844], 90.9029%; for `CCn1ncc(CN2C3CCC2CC(O)(c2ccc(F)cc2)C3)c1C` (centres unmarked) [CBK282973], 163.693%. For `CC1(C)CC(=O)c2cnc3cc(-c4ccco4)nn3c2C1` [CBK283142] the value was 103.335%; for `Cc1nn(C(C)C)c(C)c1CN(CCCN(C)C)Cc1ccco1` [CBK282978], 152.097%; for `Cc1ccc(OCCCCNCCN)c(Br)c1` [CBK265099G], 100%. Then `CCCc1cc(C(=O)OC)c(NC(=O)CC2Nc3ccccc3NC2=O)s1` (centres unmarked) [CBK269451], with 82.7227%; and `Cc1ccc(OCC(=O)N2CCCCC2c2nccs2)cc1` (centres unmarked) [CBK305091], with 116.998%. Consider `O=C(O)CCC(=O)N1N=C(c2c(-c3ccccc3)c3cc(Br)ccc3[nH]c2=O)CC1c1ccc([N+](=O)[O-])cc1` (centres unmarked) [CBK267543], for which the “% of control remaining” value amounted to 146.069%.

Source of the values: article PMC12040169 (PLOS Biology, 2025).
